Patent publication US20020042087A1
No constants are given. Whether binding was seen depends on the method and setting. Some entries that bind do so weakly or less than the wild type.

By UniProt entry, the sequences of proteins in these tests, tags left out. Where a name states a change or a piece, a line headed by the entry shows the natural chain unless it says otherwise.
UniProt Q15303: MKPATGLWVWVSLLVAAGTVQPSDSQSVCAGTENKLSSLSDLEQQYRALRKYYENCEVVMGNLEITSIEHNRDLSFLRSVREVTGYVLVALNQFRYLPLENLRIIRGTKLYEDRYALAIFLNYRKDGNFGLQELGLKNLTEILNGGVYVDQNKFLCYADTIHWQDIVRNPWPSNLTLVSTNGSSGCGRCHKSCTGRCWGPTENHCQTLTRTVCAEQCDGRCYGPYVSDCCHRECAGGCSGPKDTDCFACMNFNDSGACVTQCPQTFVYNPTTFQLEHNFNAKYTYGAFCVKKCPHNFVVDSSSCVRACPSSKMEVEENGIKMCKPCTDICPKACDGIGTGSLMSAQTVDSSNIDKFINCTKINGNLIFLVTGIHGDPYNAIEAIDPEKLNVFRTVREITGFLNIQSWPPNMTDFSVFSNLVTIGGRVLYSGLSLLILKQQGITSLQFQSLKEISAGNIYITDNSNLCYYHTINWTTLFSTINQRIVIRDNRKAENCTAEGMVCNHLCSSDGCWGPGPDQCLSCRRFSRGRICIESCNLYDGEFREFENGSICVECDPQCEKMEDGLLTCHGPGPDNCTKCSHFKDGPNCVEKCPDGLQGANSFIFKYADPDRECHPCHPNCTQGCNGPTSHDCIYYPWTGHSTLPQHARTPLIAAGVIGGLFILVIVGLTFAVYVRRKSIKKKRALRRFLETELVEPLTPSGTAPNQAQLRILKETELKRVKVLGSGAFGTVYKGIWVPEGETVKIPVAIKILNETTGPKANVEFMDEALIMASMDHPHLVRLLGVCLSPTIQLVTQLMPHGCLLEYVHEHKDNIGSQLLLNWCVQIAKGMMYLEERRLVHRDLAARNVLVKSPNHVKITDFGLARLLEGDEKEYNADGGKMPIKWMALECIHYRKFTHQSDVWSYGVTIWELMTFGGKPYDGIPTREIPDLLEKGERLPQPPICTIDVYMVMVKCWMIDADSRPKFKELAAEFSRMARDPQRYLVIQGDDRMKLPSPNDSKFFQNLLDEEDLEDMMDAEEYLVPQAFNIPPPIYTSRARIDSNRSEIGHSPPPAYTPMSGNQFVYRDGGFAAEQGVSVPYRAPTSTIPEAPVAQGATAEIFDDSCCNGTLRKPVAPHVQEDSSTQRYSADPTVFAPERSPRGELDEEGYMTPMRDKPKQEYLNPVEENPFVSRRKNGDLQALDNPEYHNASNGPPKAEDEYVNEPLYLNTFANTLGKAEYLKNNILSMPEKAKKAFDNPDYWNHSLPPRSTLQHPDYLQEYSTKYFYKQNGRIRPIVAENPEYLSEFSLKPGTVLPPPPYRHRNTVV

Target: HER2/HER4 IgG heterodimers (human) (UniProt P04626+P01857+Q15303)
Experiment: Western (ligand) blot under non reducing conditions, probed with HER2/HER4 IgG heterodimers

B1: γ-HRG, partially purified from conditioned medium of MDA-MB-175 cells (ligand)
chain: MDVKERKPYRSLTRRRDAERRYTSSSADSEEGKAPQKSYSSSETLKAYDQDARLAYGSRVKDIVPQEAEEFCRTGANFTLRELGLEEVTPPHGTLYRTDIGLPHCGYSMGAGSDADMEADTVLSPEHPVRLWGRSTRSGRSSCLSSRANSNLTLTDTEHENTETDHPGGLQNHARLRTPPPPLSHAHTPNQHHAASINSLNRGNFTPRSNPSPAPTDHSLSGEPPAGGAQEPAHAQENWLLNSNIPLETRNLGKQPFLGTLQDNLIEMDILGASRHDGAYSDGHFLFKPGGTSPLFCTTSPGYPLTSSTVYSPPPRPLPRSTFARPAFNLKKPSKYCNWKCAALSAIVISATLVILLAYFVAMHLFGLNWHLQPMEGQMYEITEDTASSWPVPTDVSLYPSGGTGLETPDRKGKGTTEGKPSSFFPEDSFIDSGEIDVGRRASQKIPPGTFWRSQVFIDHPVHLKFNVSLGKAALVGIYGRKGLPPSHTQFDFVELLDGRRLLTQEARSLEGTPRQSRGTVPPSSHETGFIQYLDSGIWHLAFYNDGKESEVVSFLTTAIALPPRLKEMKSQESAAGSKLVLRCETSSEYSSLRFKWFKNGNELNRKNKPQNIKIQKKPGKSELRINKASLADSGEYMCKVISKLGNDSASANITIVESNEIITGMPASTEGAYVSSESPIRISVSTEGANTSSSTSTSTTGTSHLVKCAEKEKTFCVNGGECFMVKDLSNPSRYLCKCPNEFTGDRCQNYVMASFYSTSTPFLSLPE
Question: For B1, which binding is on record?
Answer: The binding was “binds”.
